Measured values published in article PMC12040169 (PLOS Biology, 2025).
The list shows a part of the results.

Each compound was assayed on T1, CTL2-GFP (C. trachomatis L2/434/Bu, GFP-expressing). Details: bulk GFP, single well; 28.5 h, 10 µM; inhibitor.
T1 construct: L2/434/Bu, GFP-expressing
Set-up: species or system HeLa; Intracellular C. trachomatis growth in HeLa cells, bulk GFP fluorescence relative to DMSO

| Structure (SMILES) | % of control remaining [%] |
| --- | --- |
| COC(=O)c1cc(O)ccc1N [CBK002250] | 117.629 |
| CC1(C)CC(=O)c2sc(NC(=O)Nc3ccccc3)nc2C1 [CBK287319] | 122.963 |
| O=C(Nc1ccc(Cc2ccc(NC(=O)c3ccc(Br)cc3)c(O)c2)cc1O)c1ccc(Br)cc1 [CBK262086] | 106.205 |
| N#CCNS(=O)(=O)c1ccc(OC(F)(F)F)cc1 [CBK044841] | 120.685 |
| Cc1ccc(CN(CCCN(C)C)Cc2nccn2C)o1 [CBK282481] | 128.049 |
| COc1ccc(C(=O)O)cc1S(=O)(=O)N1CCCCCC1 [CBK261742] | 100 |
| CCn1c(SCC(=O)Nc2ccc(OC)c(Cl)c2)nnc1-c1ccccc1O [CBK268021] | 109.888 |
| COc1ccc2cc(/C=C(\C#N)c3nc(-c4cc5c(ccc6ccccc65)oc4=O)cs3)c(Cl)nc2c1 [CBK261636] | 100 |
| Cc1ccc(C(O)CN(C)Cc2c(C)nn(C)c2C)c(C)c1 (stereo not shown) [CBK282939] | 147.261 |
| CC(=O)N1CCCN(C(=O)c2ncoc2-c2ccc(F)cc2)CC1 [CBK282398] | 144.109 |
| Cc1cnc2c(Cl)c(C(=O)NCC(F)(F)F)nn2c1 [CBK307391] | 140.351 |
| CCc1ccc(/C=N/N2CCN(Cc3cccc4ccccc34)CC2)cc1 [CBK262986] | 132.881 |
| Cc1coc(C)c1C(=O)CC1(O)C(=O)N(CCc2ccccc2)c2ccccc21 (stereo not shown) [CBK293975] | 120.33 |
| Cc1cc(Cl)c(S(=O)(=O)Nc2ccc(Oc3ccccc3)cc2)cc1OCC(N)=O [CBK266583] | 128.962 |
| OC1(Cn2ccc3ncccc32)CCN(Cc2ccccc2F)CC1 [CBK284752] | 113.827 |
| O=C(O)c1csc(-c2ccc(Cl)cc2Cl)n1 [CBK067777] | 128.432 |
| Cc1nccn1Cc1ccccc1C(=O)NCCn1ccnc1 [CBK281580] | 133.47 |
| Cc1cc2c(o1)c1cnn(CC(=O)N3CCCCC3)c(=O)c1n2C [CBK284217] | 140.892 |
| O=C1CCC(=O)N1CCOc1nccnc1N1CCN(Cc2ccc(Cl)c(Cl)c2)CC1 [CBK084287] | 112.683 |
| Cc1noc2nc(C3CCN(C(=O)C(C)C)CC3)cc(C(F)F)c12 [CBK285305] | 134.178 |

In a second layout: results already given.
Structure (SMILES),% of control remaining [%]
COc1ccc(C(=O)O)cc1S(=O)(=O)N1CCCCCC1 [CBK261742],100
OC1(Cn2ccc3ncccc32)CCN(Cc2ccccc2F)CC1 [CBK284752],113.827

Next records follow.

| Structure (SMILES) | % of control remaining [%] |
| --- | --- |
| CC1(OCCN2CCOCC2)SC(NC2CC3CCC2C3)=NC1=O (stereo not shown) [CBK116313] | 141.082 |
| CN1CCC(N[C@H]2C[C@@H](Cc3cc(CCO)on3)C2(C)C)CC1 [CBK289253] | 153.546 |
| CCOCc1ccc(C(=O)N2CCNC(=O)C2Cc2ccc(-c3cccs3)cc2)cc1 (stereo not shown) [CBK285811] | 94.0205 |
| CC(=O)Nc1ccc(S(=O)(=O)N2CCN(C(=O)COc3ccc(Br)cc3)CC2)cc1 [CBK264234] | 100 |
| CCOC(=O)c1cccnc1-c1ccc(Cl)c(Cl)c1 [CBK149241] | 128.12 |
| CC(C)(C)NC(=O)CN1C(=O)N2CCCN=C2c2ccccc21 [CBK284404] | 110.074 |
| COc1ccc(CCNC(=S)N2CCN(c3ccccn3)CC2)cc1OC [CBK266897] | 139.328 |
| O=C1NC(c2cccnc2)Nc2sc3c(c21)CCCC3 (stereo not shown) [CBK072377] | 127.511 |
| COC(=O)N1CCN(c2ccccc2)CC1 [CBK200414] | 104.01 |
| CN(C(=O)CN1C2CCC1CC(O)(c1ccco1)C2)C1CCCCC1 (stereo not shown) [CBK284108] | 122.866 |
| O=[N+]([O-])c1ccccc1OCCCn1cnc2ccccc21 [CBK267820G] | 116.625 |
| O=C(O)CC(NCc1ccco1)C(=O)Nc1cccc(F)c1 (stereo not shown) [CBK286910] | 111.418 |
| CC(C)(C)OC(=O)N1CCCC(C(=O)NC(C(N)=O)c2ccccc2)C1 (stereo not shown) [CBK305766] | 114.636 |
| CCOc1cc(C)c(Cl)cc1S(=O)(=O)NCc1ccccn1 [CBK268047] | 112.694 |
| COc1ccc(CN2CCN(c3ccccc3F)CC2)cc1OCc1ccccc1 [CBK261900] | 84.819 |
| O=C(O)c1cccc(NS(=O)(=O)CC(F)(F)F)c1 [CBK155712] | 98.2686 |
| FC(F)(F)c1cccc(OCc2nnn[nH]2)c1 [CBK269466] | 113.965 |
| COc1cc(CNc2nc(-c3cccc4ccccc34)cn3ccnc23)cc(OC)c1OC [CBK037397] | 144.07 |
| COc1ccc(NC(=O)c2cnc3sc(C)cn3c2=O)c(OC)c1 [CBK287712] | 130.887 |
| CC12CN(Cc3ccccc3)CC1NC(=O)c1ccccc1C2N (stereo not shown) [CBK282850] | 100.811 |
